According to PMC3568036:
No constants are given. Whether binding was seen depends on the method and setting. Binding seen in cells or lysates may run through a third protein. Tags and fused reporters may be left off the sequences shown.

Target: glutathione-S-transferase (GST)-tagged EspO1-2 (EHEC O157:H7 Sakai)
Assay: pull-down; GST-fused protein on glutathione-Sepharose 4B beads mixed with a cleared extract of E. coli MC1061 expressing the Flag-tagged effector; 2 h at 4°C; washed with RIPA buffer (25 mM Tris-HCl, 150 mM NaCl, 1% Nonidet P-40, pH 7.5); immunoblot with anti-Flag; only the target purified

B1: Flag-tagged EspG (protein, UniProt Q7DB50 1-381)
chain: MINGLNNDSASLVLDAAMKVNSGFKKSWDEMSCAEKLFKVLSFGLWNPTYSRSERQSFQELLTVLEPVYPLPNELGRVSARFSDGSSLRISVTNSELVEAEIRTANNEKITVLLESNEQNRLLQSLPIDRHMPYIQVHRALSEMDLTDTTSMRNLLGFTSKLSTTLIPHNAQTDPLSGPTPFSSIFMDTCRGLGNAKLSLNGVDIPANAQKLLRDALGLKDTHSSPTRNVIDHGISRHDAEQIARESSGSDKQKAEVVEFLCHPEAATAICSAFYQSFNVPALTLTHERISKASEYNAERSLDTPNACINISISQSSDGNIYVTSHTGVLIMAPEDRPNEMGMLTNRTSYEVPQGVKCIIDEMVSALQPRYAASETYLQNT
  binding: no binding
